Measurements taken from US20260191191A1, “METHOD FOR INACTIVATING ENVELOPED VIRUSES” (Merck Patent GmbH, priority 2022, published 2026).

Assay: Detergent removal in downstream processing (chromatography scout column, HPLC-ELSD detection)
Settings: for Detergent conc. in eluate after purification: LOD 2 μg/mL

C11-C15 secondary alcohol ethoxylate
Detergent conc. in eluate after purification (Anion Exchange (Fractogel EMD TMAE Hicap), 10 957 μg/g before purification): <LOD
Detergent conc. in eluate after purification (Cation Exchange (Eshmuno S), 9060 μg/g before purification): <LOD
Detergent conc. in eluate after purification (Protein A (Eshmuno Prot A), 9663 μg/g before purification): <LOD
detergent in the eluate and CIP fractions (protein A, cation and anion exchange): No traces of detergent were detected
